Assay results from PubChem BioAssay AID2685 (National Center for Advancing Translational Sciences (NCATS), 2010).
The other results are listed elsewhere or left out. Shown are side measurements of this screen, not its main read-out; they come without a call. The list favours compounds with an active or inconclusive main result. Potencies come from curve fits of mixed quality, noted in brackets.

Assay: qHTS Assay for Lipid Storage Modulators in Drosophila S3 Cells;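 as to cell number change: cells counted by Cell Tracker Red CMTPX staining in the red channel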
Conditions: BODIPY lipid droplet fluorescence, 18-24 h; for cell number change: measured here: cell count max response, cells fed with added oleic acid
Summary of the method: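 Laser-scanning cytometry quantifies lipid droplet accumulation (500–530 nm total intensity; droplet/cell object ratio) in oleic acid-fed (400 uM added) Drosophila S3 cells treated with a concentration series. 20 uM Triacsin C defined 100% inhibition.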

[1] = measured here: lipid fluorescence (Fed channel) AC50, cells fed with added oleic acid
[2] = measured here: cell number channel AC50, cells fed with added oleic acid

Structure (SMILES)	cell number change	AC50 [1]	AC50 [2]
Cn1c(=O)c2c(O)c([N+](=O)[O-])c(=O)n(C)c2n(C)c1=O	-18.6%	6.51 µM [falling, full curve, poor fit]	
CCCS(=O)(=O)N1CCCC(C(=O)NCCc2ccc(Cl)cc2)C1 (stereo not given)	19.5%		
Cc1ccc2c(c1)N(CC(=O)N1CCN(c3nc4ccccc4s3)CC1)C(=O)C(C)O2 (stereo not given)	4.7%	2.31 µM [rising, partial curve]	
COc1ccc(S(=O)(=O)N2CCOC2CNC(=O)C(=O)NCCc2c[nH]c3ccccc23)cc1C (stereo not given)	11.5%		
CC(=O)OCCOc1nc(N(C)C)nc(N(C)C)n1	39.9%	23.1 µM [rising, single point]	4.11 µM [rising, full curve]
COc1ccc(NC(=S)Nc2ccccc2Cl)cn1	-8.93%	3.66 µM [rising, full curve, poor fit]	
C=CCNC(=O)c1ccc(CN(c2ccc(OCC)cc2)S(=O)(=O)c2ccc(C)cc2)cc1	54.1%		29.1 µM [rising, single point]
CCc1ccc(NC(=O)CSc2nnc(Cc3cccn3C)n2-c2ccc(OC)cc2)cc1	28.6%		
Cc1cc(=O)oc(C)c1C(=O)Nc1ccc2ncccc2c1	47.6%	0.058 µM [falling, full curve]	18.4 µM [rising, single point]
COc1ccccc1NC(=O)COc1ccc(C(=O)OCC(=O)N(C(C)C)C(C)C)cc1OC		1.3 µM [rising, partial curve]	2.06 µM [rising, partial curve]
C/C(=N\NC(=O)c1ccc(CN2CCOCC2)cc1)c1ccc(NC(=O)c2ccccc2)cc1	26.2%		
O=C(CCCc1c[nH]c2ccccc12)NCCc1c[nH]c2ccccc12	21.8%	18.4 µM [rising, single point]	
CCCNc1ncccc1C(N)=O	-40.3%	5.17 µM [falling, single point]	3.66 µM [falling, full curve]
CSc1cccc(NC(=O)c2cc(S(=O)(=O)N3CCCC3)cn2C)c1	-38.6%		16.4 µM [falling, partial curve, poor fit]
O=C(NCc1cccs1)C(=O)NCC1OCCCN1S(=O)(=O)c1ccc(F)cc1 (stereo not given)	25.5%		
COCCCNC(=O)Cn1c(=O)n(CC(=O)NCCc2ccc(OC)c(OC)c2)c(=O)c2sccc21	24%	20.6 µM [rising, single point]	
CCOc1ccccc1NC(=O)COC(=O)c1cc(C(=O)OC)cc([N+](=O)[O-])c1	16.7%	10.3 µM [rising, partial curve, poor fit]	
COCCCNC(=O)c1cc(C(=O)c2ccccc2Br)c[nH]1	16.8%		
CC(C)c1ccc(NC(=S)N2CCN(Cc3ccccc3)CC2)cc1		0.103 µM [falling, full curve, poor fit]	

Structure (SMILES)	cell number change	AC50 [1]	AC50 [2]
O=C(c1cncs1)N1CCCC(CNS(=O)(=O)c2cccs2)C1 (stereo not given)	-9.24%		0.146 µM [falling, full curve, poor fit]
CC(C)[C@H](NC(=O)c1ccccc1)C(=O)OCC(=O)c1ccccc1F		6.51 µM [rising, partial curve, poor fit]	
Cc1cc(C(=O)CN2C(=O)C(=O)N(CC(C)C)C2=O)c(C)n1C1CC1	-0.367%	0.82 µM [falling, single point]	
Cc1ccc(N/C(SCc2ccccc2C)=C(/C#N)C(=O)NCc2ccco2)cc1C	10.3%	6.51 µM [rising, single point]	
O=C(OCC1OC2C(Oc3nc(=O)ccn32)C1O)c1ccccc1 (stereo not given)	10.1%	8.2 µM [falling, partial curve]	
Cc1onc(-c2ccccc2)c1C(=O)N/N=C/C=C/c1ccccc1	30.1%	0.291 µM [rising, full curve]	5.17 µM [rising, full curve, poor fit]
O=C(NC(NC(=S)Nc1c(Cl)cccc1Cl)C(Cl)(Cl)Cl)c1cccc([N+](=O)[O-])c1 (stereo not given)		4.11 µM [falling, partial curve]	
O=C(NC1CCCCC1)c1cccc(S(=O)(=O)N2CCOCC2)c1			6.51 µM [falling, single point]
CC1CCCN(C(=O)CN(C)S(=O)(=O)c2ccc3c(c2)c(=O)n(C)c(=O)n3C)C1 (stereo not given)	2.59%	18.4 µM [falling, partial curve]	0.58 µM [falling, full curve]
CCOc1ccc(NC(=O)NNC(=O)C(C)Oc2ccccc2OC)cc1 (stereo not given)	22.2%	9.2 µM [rising, partial curve, poor fit]	
O=C(Nc1ccc(Cn2nnc3ccccc32)cc1)c1ccco1	-30.7%	4.11 µM [rising, full curve]	29.1 µM [falling, single point]
Cc1cnc(C(=O)OCC(=O)NC2CCCCC2)cn1	1.97%		
O=C(COC(=O)C1COc2ccccc2O1)Nc1cccc(S(=O)(=O)N2CCCCC2)c1 (stereo not given)	-74%	23.1 µM [falling, partial curve]	14.6 µM [falling, partial curve, poor fit]
Cc1cccc(NC(=O)CN(C)C(=O)c2ccc3ccccc3n2)c1C			0.517 µM [rising, partial curve]
OC(C#Cc1ccccn1)c1cccs1 (stereo not given)	-59.9%	29.1 µM [falling, single point]	20.6 µM [falling, single point]
O=C(Nc1ccccc1O)c1c(O)c2c([nH]c1=O)CCCC2	-49.4%		25.9 µM [falling, single point]
O=C(CSc1cn[nH]n1)Nc1ccccc1C(=O)O	11.8%		
Cc1cccc(C)c1NC(=S)N/N=C1\CC2CC=CC12 (stereo not given)			6.51 µM [rising, single point]
CCc1ccc(NS(=O)(=O)c2ccc3[nH]cc(C(=O)NCC4CCCO4)c(=O)c3c2)cc1 (stereo not given)	3.91%		6.51 µM [rising, single point]
